## Percent effect of library compounds

The chains behind the UniProt entries cited, without tags or fusion partners.
UniProt P9WFT3, whole entry: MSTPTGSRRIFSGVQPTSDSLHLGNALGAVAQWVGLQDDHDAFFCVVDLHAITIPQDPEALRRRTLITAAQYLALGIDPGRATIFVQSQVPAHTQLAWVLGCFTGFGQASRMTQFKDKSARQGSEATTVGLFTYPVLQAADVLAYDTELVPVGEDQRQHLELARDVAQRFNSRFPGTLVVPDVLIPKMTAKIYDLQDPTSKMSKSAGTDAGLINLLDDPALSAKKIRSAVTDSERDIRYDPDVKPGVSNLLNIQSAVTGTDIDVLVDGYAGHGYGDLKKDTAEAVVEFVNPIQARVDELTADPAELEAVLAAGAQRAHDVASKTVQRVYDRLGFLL

A: 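Enzyme assay of tryptophanyl-tRNA synthetase; the read-out is not stated. Target: Tryptophan-tRNA ligase, Mycobacterium tuberculosis (UniProt P9WFT3). Concentration: 10 µM. Higher most likely means stronger inhibition; the record gives no direction and few retests gave an IC50. Size under these conditions: about 65,000 compounds, about 64 of them at 50% or above in at least one test.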
B: 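Cell assay of Leishmania donovani living inside macrophages; the read-out is not stated. Tested at 30 µM. Higher reads as stronger inhibition (inferred: compounds with an IC50 in retests scored well above the rest). Size under these conditions: about 69,000 compounds, about 1,000 of them at 50% or above in at least one test.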

Each number is a percent effect as filed. The record does not define 0% and 100%; most values in the screen are far below 50% and negative numbers occur (in some assays of this library far below -100). The compounds are a random part of those screened. Two or more numbers in one place are separate tests of the same structure; such repeats can differ widely. A dash means the value is not listed here; it may have been measured.

SMILES: CC(C)[C@@H]1CN(Cc2ccccc2C#N)C[C@H]1N(C)C
A: 1.37%
B: -19.09%

SMILES: Cc1cnc(N2CCC3(CCN(CC4CCCC4)C3=O)CC2)nc1
A: -3.151%

SMILES: Cc1ccsc1C(Cn1ccnc1-c1ccccc1C(=O)O)N(C)C (configuration not stated)
A: -1.575%
B: -33.01%

SMILES: CCOC(=O)c1sc2ccsc2c1CNS(C)(=O)=O
A: -2.225%
B: 25.94%

SMILES: CC(CNC(=O)c1ccc(F)cc1Cl)N1CCCC1 (configuration not stated)
A: -1.517%
B: 37.14%

SMILES: Cc1ccc(CNC2CCCc3c2cnn3Cc2ccccc2)s1 (configuration not stated)
A: 0.895%

SMILES: O=C(CCc1ccc2c(c1)CCO2)Nc1nnn[nH]1
A: 4.744%
B: -5.737%

SMILES: COc1ncc(CN2CCC3(CCCN(CC4CCCCC4)C3)C2)cn1 (configuration not stated)
A: 0.432%
B: -7.364%

SMILES: CN(C)CCN1C(=O)CCC12CCCN(C(=O)CC1CC1)CC2 (configuration not stated)
A: 5.638%
B: 7.416%

SMILES: CN(CC1CCCCO1)c1nc(-c2cccnc2)nc2c1CCNC2 (configuration not stated)
A: 1.06%
B: 23.45%

SMILES: COc1ncc(-c2c(C#N)c(N)nc3c2CCc2[nH]ccc2-3)cn1
A: 1.071%
B: 8.187%

SMILES: Cc1cccc(CN2C[C@@H]3COC[C@]3(COc3cccnc3)C2)n1
A: 1.028%

SMILES: Cc1ncc2c(n1)C1(CCN(C(=O)C(C)C)CC1)OCC2
A: 0.5277%

SMILES: CCc1cc(NCCCNS(C)(=O)=O)nc(-c2ccccn2)n1
A: -1.534%
B: 12.1%

SMILES: N#Cc1ccc(CN2CCNC(=O)C2c2cccs2)cc1 (configuration not stated)
A: -0.08333%
B: -4.923%

SMILES: CC(C)c1nc(C2CCCN2Cc2ccno2)no1 (configuration not stated)
A: 0.8793%
B: 14.84%

SMILES: c1cc(-c2cncnc2)cc(-c2ccn(CC3CCNC3)n2)c1 (configuration not stated)
A: -0.9662%
B: 5.053%

SMILES: CNc1nc(C2CCN(C(=O)CC3CCCC3)C2)nc2c1CN(C)CC2 (configuration not stated)
A: 6.745%
B: -11.21%

SMILES: CNC(=O)c1cc2c(nc1NCC(C)C)CCN(C)CC2
A: -5.862%

SMILES: CC(C)OCc1ncn2c1CN(Cc1ccc(F)cc1)CCC2
A: 1.133%

SMILES: [H][C@]12CC[C@@]3(N=C(C)N(CC)C3=O)[C@@]1([H])CN(S(=O)(=O)CC(C)C)C2
B: 5.577%

SMILES: Cc1nc(CN2C[C@@H]3CN(C(=O)C4(C#N)CC4)C[C@@H]3C2=O)cs1
A: -9.794%

SMILES: Cc1noc(NC(=O)c2ccc(Br)cc2)n1
A: -2.437%
B: 7.983%

SMILES: O=C(c1cccs1)N1CC[C@H]2[C@@H]1CCC(=O)N2c1cccnc1
A: -4.473%

SMILES: [H][C@@]12CN(Cc3cccnc3)C[C@]1([H])OCCN2Cc1c(C)noc1C
B: 19.05%

SMILES: CCn1cc(N2Cc3nc(N4CCCC4)ncc3C2=O)cn1
A: -2.979%
B: -29.57%

SMILES: N#Cc1cccc(CN2Cc3nccn3CC(CN3CCCC3)C2)c1 (configuration not stated)
A: 6.184%

SMILES: Cc1nc(NCC2CC2)nc2c1COCC21CCN(S(=O)(=O)C2CC2)C1 (configuration not stated)
A: -6.568%
B: -10.8%

SMILES: CSCc1cccc(S(=O)(=O)N2CCCCCC2)c1
A: 4.404%
B: 28.06%

SMILES: COc1cccc(C(=O)NCC(O)c2cccs2)c1 (configuration not stated)
A: -2.352%
B: 27.71%

SMILES: O=c1cc(C2CCNCC2)nc(CCc2ccccn2)[nH]1
A: -3.769%
B: 13.13%

SMILES: [H][C@]12CC[C@]([H])(CN(c3nccc(C4CCCC4)n3)C1)N(CCOC)C2=O
B: 36.69%

SMILES: Cc1cc(-n2nnc(C(=O)O)c2-c2ccncc2)ccc1F
A: 4.158%
B: 25.71% & -4.482%

SMILES: COCCN1CCC2(CC1)CN(C(=O)C1CC1)c1ccc(F)cc12
A: -5.093%

SMILES: Cc1ncsc1CN1C[C@@H](OCc2ccccn2)[C@H]2OCCC[C@H]21
A: -4.673%

SMILES: CN(Cc1cn2c(n1)CN(Cc1ccsc1)CC2)Cc1ccco1.O=C(O)C(F)(F)F.O=C(O)C(F)(F)F
B: 7.674%

SMILES: CC(C)n1nnnc1-c1ccc(NC(=O)CCC(F)(F)F)cc1F
A: 0.89%
B: 3.066%

SMILES: CC(NC(=O)c1cnccn1)c1nnc2ccccn12 (configuration not stated)
A: -7.802%
B: -40.93%

SMILES: Cn1cnc(S(=O)(=O)N2CCN(CC3CC3)c3ncccc3C2)c1.O=C(O)C(F)(F)F.O=C(O)C(F)(F)F
B: 26.42%

SMILES: CCS(=O)(=O)N1CC[C@@H]2[C@H](CC1)N(Cc1cccnc1)CCS2(=O)=O
A: -2.813%

SMILES: CCCS(=O)(=O)N[C@H]1CN(c2ncccc2C(N)=O)C[C@@H]1C(C)C
A: -1.554%
B: 6.485%

SMILES: O=C(NCCCN1CCOCC1)c1ccc(-n2ccc3ccccc32)s1
A: 6.016%
B: 90.86%

SMILES: Cn1ncc2c1C(COCC1CC1)CN(Cc1ccoc1)C2 (configuration not stated)
A: 1.308%
B: 18.09%

For reference, 5 entries once more:

SMILES,A,B
N#Cc1ccc(CN2CCNC(=O)C2c2cccs2)cc1 (configuration not stated),-0.08333%,-4.923%
CCn1cc(N2Cc3nc(N4CCCC4)ncc3C2=O)cn1,-2.979%,-29.57%
CC(CNC(=O)c1ccc(F)cc1Cl)N1CCCC1 (configuration not stated),-1.517%,37.14%
O=C(c1cccs1)N1CC[C@H]2[C@@H]1CCC(=O)N2c1cccnc1,-4.473%,-
[H][C@@]12CN(Cc3cccnc3)C[C@]1([H])OCCN2Cc1c(C)noc1C,-,19.05%

Measurements from “University of Dundee, Small-Polar-MMV Screening Library” (2021), ChEMBL document CHEMBL3988442.